PubChem BioAssay AID1053208, Peter MacCallum Cancer Centre, 2014

Test: 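Genes whose silencing cuts survival of bone tumour cells only with doxorubicin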 (primary screen)
Cell system: mouse osteosarcoma cells, early-passage culture from an engineered mouse model of fibroblastic bone tumour
Knock-down reagent: siRNA pool against mouse genes, 40 nM
Duration: about 120 h (48 h before drug, then 72 h with drug)
Challenge: doxorubicin 100 nM for 72 h, roughly 30-40% inhibitory dose
Measured: 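Viability read as ATP luminescence after 72 h of 100 nM doxorubicin or none, duplicate wells averaged, scaled to non-targeting siRNA, then expressed as robust z-scores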
Direction: viability z-score with doxorubicin and doxorubicin viability vs non-targeting: higher = more viable cells under doxorubicin; viability z-score without drug: higher = more viable cells with knock-down alone; z-score of drug to no-drug ratio: higher = less drug sensitisation by knock-down
Rule for the call: 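a pool counts as active when its viability z-score with doxorubicin is -2 or below and its z-score without drug lies between -2 and 2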
This is an unselected part of about 17,000 deposited reagents. In the full data, 788 (4.7%) got an active call. 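Calls rest on z-score classes alone; an extra cut-off of viability at most 70% of control was not applied to them.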

gene	combined z-score class	viability z-score with doxorubicin	viability z-score without drug	z-score of drug to no-drug ratio	doxorubicin viability vs non-targeting	call
Ercc6	no change with or without drug	-0.22	1.52	-1.12	0.92	inactive
Ccdc120 (coiled-coil domain containing 120)	no change with or without drug	-1.01	0.67	-1.35	0.85	inactive
Zik1 (zinc finger protein interacting with K protein 1)	no change with or without drug	-0.22	1.52	-1.12	0.92	inactive
Sla (src-like adaptor)	no change with or without drug	0	-0.51	0.45	0.94	inactive
Smyd2 (SET and MYND domain containing 2)	no change with or without drug	0.67	0.67	0.34	1	inactive
Tmem119 (transmembrane protein 119)	no change with or without drug	1.57	0.84	1.12	1.08	inactive
Reck (reversion-inducing-cysteine-rich protein with kazal motifs)	no change with or without drug	-1.01	-1.52	0.11	0.85	inactive
Vmn1r29 (vomeronasal 1 receptor 29)	no change with or without drug	0	-0.51	0.45	0.94	inactive
Mix23 (mitochondrial matrix import factor 23)	no change with or without drug	0	0.34	-0.11	0.94	inactive
F9 (coagulation factor IX)	no change with or without drug	-0.56	0	-0.45	0.89	inactive
Prune2 (prune homolog 2)	no change with or without drug	0.34	0.51	0.11	0.97	inactive
Bag1 (BCL2-associated athanogene 1)	high cell count with doxorubicin only	3.04	1.85	1.8	1.21	inactive
Gpr156 (G protein-coupled receptor 156)	no change with or without drug	-1.69	1.85	-2.59	0.79	inactive
Fdps (farnesyl diphosphate synthetase)	no change with or without drug	0	0.34	-0.11	0.94	inactive
Tmem131 (transmembrane protein 131)	no change with or without drug	1.12	0.51	0.9	1.04	inactive
Gmnn (geminin)	low cell count with doxorubicin only	-2.02	-1.52	-1.12	0.76	active
Sfxn2 (sideroflexin 2)	low cell count without drug only	-1.24	-2.87	0.9	0.83	inactive
Pars2 (prolyl-tRNA synthetase (mitochondrial)(putative))	no change with or without drug	1.01	0.34	0.9	1.03	inactive
Mybph (myosin binding protein H)	no change with or without drug	0.34	-0.84	1.12	0.97	inactive
Ctsc (cathepsin C)	no change with or without drug	-0.45	-1.35	0.56	0.9	inactive
Mapt (microtubule-associated protein tau)	no change with or without drug	1.12	-0.84	2.02	1.04	inactive
Alas2 (aminolevulinic acid synthase 2, erythroid)	no change with or without drug	0.22	-1.35	1.35	0.96	inactive
Or8k20 (olfactory receptor family 8 subfamily K member 20)	no change with or without drug	-0.9	-1.85	0.45	0.86	inactive
Slc7a4	no change with or without drug	1.12	1.18	0.45	1.04	inactive
Ddc (dopa decarboxylase)	no change with or without drug	0.34	-0.67	1.01	0.97	inactive
Wnt3a (WNT family member 3A)	no change with or without drug	0.22	1.35	-0.56	0.96	inactive
Upk3b (uroplakin 3B)	no change with or without drug	-0.9	0	-0.79	0.86	inactive
Sack1f (scaffolding CK1 anchoring protein F)	no change with or without drug	-0.9	-0.34	-0.67	0.86	inactive
Fitm1 (fat storage-inducing transmembrane protein 1)	no change with or without drug	-0.11	0.17	-0.11	0.93	inactive
Il23a (interleukin 23, alpha subunit p19)	no change with or without drug	0.67	1.18	0	1	inactive
Kcnj16	no change with or without drug	-0.11	0.17	-0.11	0.93	inactive
Rer1 (retention in endoplasmic reticulum sorting receptor 1)	no change with or without drug	0.56	0.34	0.45	0.99	inactive
Gata2 (GATA binding protein 2)	no change with or without drug	1.8	-0.84	2.7	1.1	inactive
Ly6g6g (lymphocyte antigen 6 family member G6G)	no change with or without drug	-0.9	-0.51	-0.56	0.86	inactive

Part of the list above, set out differently.
Fdps (farnesyl diphosphate synthetase) → combined z-score class = no change with or without drug; viability z-score with doxorubicin = 0; viability z-score without drug = 0.34; z-score of drug to no-drug ratio = -0.11; doxorubicin viability vs non-targeting = 0.94; call = inactive
Tmem131 (transmembrane protein 131) → combined z-score class = no change with or without drug; viability z-score with doxorubicin = 1.12; viability z-score without drug = 0.51; z-score of drug to no-drug ratio = 0.9; doxorubicin viability vs non-targeting = 1.04; call = inactive
Gmnn (geminin) → combined z-score class = low cell count with doxorubicin only; viability z-score with doxorubicin = -2.02; viability z-score without drug = -1.52; z-score of drug to no-drug ratio = -1.12; doxorubicin viability vs non-targeting = 0.76; call = active
